From PMC7594058
Results are given in words; binding and its absence hold for the method and conditions named. Binding seen in cells or lysates may run through a third protein. These calls come from enrichment with a bait or labelling near it, and not all partners need be listed. For some of these results: A no says only that the protein was not detected with the bait.

The chains behind the UniProt entries cited, without tags or fusion partners. Where a name states a change or a piece, a line headed by the entry shows the natural chain unless it says otherwise.
UniProt P03083: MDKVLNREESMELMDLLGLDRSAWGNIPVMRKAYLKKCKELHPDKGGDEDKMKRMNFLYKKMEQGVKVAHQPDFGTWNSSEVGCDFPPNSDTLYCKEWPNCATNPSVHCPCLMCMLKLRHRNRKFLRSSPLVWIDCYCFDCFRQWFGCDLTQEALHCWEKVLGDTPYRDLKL
UniProt O95831: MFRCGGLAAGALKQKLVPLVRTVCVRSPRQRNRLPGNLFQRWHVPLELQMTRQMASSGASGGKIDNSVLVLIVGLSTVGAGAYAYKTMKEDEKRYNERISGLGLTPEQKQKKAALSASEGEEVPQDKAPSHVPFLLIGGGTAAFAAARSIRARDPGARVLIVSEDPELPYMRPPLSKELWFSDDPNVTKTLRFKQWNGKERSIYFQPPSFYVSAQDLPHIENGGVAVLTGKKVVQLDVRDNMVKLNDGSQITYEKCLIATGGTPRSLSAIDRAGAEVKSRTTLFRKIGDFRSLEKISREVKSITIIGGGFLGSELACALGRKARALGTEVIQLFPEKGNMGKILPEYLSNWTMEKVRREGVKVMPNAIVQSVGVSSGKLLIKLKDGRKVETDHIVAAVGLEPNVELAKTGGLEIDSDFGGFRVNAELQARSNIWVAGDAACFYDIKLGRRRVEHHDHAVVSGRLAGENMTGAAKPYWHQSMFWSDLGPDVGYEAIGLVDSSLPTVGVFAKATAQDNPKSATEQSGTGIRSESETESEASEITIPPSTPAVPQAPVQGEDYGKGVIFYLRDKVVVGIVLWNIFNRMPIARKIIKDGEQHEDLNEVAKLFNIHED
UniProt Q96GD4: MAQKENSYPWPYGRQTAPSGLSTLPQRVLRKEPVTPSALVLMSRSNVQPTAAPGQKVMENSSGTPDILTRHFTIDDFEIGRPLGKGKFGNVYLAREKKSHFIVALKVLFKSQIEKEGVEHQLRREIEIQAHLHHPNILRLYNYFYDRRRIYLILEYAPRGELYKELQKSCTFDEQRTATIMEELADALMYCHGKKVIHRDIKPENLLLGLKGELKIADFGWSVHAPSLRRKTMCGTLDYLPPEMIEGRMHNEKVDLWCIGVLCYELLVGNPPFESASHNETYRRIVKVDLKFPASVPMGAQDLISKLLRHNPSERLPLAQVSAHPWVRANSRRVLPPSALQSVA
UniProt O95816: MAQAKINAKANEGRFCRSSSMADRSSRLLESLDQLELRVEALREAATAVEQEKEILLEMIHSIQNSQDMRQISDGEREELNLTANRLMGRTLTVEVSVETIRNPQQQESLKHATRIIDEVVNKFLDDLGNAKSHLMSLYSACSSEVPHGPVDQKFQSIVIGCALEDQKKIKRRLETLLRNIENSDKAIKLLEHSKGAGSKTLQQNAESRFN
UniProt Q14677: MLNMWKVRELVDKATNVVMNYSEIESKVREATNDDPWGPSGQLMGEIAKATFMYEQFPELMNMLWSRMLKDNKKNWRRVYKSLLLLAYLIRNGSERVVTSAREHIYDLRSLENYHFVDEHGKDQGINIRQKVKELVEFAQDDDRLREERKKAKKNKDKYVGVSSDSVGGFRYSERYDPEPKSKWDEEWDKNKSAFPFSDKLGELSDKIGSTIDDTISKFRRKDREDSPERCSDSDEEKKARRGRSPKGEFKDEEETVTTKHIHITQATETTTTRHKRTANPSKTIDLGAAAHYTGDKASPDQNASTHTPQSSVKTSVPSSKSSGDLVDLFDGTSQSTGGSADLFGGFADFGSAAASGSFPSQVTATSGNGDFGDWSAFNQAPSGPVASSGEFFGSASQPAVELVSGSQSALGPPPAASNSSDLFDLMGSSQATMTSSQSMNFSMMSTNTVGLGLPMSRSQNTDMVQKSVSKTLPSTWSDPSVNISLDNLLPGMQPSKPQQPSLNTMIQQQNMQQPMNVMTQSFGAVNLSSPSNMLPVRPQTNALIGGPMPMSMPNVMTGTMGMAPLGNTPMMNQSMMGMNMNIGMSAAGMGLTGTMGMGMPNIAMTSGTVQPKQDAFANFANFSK
UniProt Q13439: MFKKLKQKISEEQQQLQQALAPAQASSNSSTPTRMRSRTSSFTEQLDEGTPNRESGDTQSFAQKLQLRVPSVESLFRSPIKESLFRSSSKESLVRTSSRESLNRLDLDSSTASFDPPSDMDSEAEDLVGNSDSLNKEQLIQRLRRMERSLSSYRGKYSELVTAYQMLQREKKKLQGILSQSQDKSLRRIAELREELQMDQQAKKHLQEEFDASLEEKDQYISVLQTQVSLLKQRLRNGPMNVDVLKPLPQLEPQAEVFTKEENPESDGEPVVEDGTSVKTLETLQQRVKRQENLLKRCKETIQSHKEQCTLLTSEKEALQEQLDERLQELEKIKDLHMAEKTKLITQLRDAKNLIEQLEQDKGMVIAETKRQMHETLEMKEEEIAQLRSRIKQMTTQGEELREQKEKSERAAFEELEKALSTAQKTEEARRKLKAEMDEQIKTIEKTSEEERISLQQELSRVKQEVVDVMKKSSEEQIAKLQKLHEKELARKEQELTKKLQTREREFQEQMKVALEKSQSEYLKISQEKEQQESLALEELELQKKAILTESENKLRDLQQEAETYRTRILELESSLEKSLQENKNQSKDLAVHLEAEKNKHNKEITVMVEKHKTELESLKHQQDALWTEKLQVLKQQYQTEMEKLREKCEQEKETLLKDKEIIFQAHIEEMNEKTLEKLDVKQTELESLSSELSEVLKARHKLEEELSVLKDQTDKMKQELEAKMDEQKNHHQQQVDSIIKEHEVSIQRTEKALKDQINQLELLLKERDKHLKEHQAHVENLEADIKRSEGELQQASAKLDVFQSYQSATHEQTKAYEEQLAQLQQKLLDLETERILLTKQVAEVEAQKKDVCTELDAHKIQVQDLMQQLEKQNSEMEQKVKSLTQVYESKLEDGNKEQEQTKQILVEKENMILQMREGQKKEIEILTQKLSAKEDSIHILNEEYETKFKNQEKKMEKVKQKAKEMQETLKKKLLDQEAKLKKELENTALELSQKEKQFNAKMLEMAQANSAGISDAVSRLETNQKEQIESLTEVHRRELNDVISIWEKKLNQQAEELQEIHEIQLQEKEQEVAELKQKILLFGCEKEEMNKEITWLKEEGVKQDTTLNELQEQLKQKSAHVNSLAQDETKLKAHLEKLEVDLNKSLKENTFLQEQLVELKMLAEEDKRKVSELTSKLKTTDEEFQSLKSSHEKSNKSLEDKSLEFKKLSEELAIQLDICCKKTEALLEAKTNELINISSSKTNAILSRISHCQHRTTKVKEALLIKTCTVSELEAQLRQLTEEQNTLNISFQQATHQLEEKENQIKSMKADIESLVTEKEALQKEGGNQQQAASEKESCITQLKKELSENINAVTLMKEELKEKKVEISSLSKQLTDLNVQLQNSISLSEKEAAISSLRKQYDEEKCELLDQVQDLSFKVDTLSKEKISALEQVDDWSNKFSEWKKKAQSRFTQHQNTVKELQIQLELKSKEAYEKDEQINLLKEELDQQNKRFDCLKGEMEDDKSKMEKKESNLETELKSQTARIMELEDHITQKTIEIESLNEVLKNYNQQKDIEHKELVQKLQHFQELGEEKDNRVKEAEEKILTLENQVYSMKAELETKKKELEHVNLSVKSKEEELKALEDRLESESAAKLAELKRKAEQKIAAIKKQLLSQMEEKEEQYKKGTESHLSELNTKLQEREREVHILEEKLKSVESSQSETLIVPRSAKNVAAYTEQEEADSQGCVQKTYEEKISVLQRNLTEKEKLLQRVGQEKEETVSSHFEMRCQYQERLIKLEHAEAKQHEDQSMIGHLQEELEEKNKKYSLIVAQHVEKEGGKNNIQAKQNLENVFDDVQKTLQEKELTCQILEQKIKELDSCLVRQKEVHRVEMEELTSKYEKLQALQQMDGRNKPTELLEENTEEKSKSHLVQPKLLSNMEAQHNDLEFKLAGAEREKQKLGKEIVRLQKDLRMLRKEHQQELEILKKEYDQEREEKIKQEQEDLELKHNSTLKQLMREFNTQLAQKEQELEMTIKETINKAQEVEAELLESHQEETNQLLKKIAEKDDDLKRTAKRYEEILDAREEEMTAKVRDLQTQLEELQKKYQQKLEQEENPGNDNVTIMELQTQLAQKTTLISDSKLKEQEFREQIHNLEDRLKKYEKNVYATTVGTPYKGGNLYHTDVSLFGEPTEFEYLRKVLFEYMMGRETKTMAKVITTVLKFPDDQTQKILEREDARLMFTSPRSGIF
UniProt P30153: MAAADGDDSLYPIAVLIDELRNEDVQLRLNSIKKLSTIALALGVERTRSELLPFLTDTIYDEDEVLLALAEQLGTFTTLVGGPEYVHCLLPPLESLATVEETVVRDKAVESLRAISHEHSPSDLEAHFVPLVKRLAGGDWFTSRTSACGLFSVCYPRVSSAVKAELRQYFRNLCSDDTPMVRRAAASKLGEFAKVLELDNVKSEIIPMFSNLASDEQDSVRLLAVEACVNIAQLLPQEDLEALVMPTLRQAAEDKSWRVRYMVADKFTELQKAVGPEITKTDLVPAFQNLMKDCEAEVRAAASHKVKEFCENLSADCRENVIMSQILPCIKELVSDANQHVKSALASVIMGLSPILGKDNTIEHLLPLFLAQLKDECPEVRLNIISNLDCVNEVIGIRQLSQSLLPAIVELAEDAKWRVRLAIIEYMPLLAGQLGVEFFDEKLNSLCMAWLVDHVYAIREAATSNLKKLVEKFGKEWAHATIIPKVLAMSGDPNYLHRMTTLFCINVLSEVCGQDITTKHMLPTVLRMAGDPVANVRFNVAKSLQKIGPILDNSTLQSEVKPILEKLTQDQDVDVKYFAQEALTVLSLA
UniProt Q14137: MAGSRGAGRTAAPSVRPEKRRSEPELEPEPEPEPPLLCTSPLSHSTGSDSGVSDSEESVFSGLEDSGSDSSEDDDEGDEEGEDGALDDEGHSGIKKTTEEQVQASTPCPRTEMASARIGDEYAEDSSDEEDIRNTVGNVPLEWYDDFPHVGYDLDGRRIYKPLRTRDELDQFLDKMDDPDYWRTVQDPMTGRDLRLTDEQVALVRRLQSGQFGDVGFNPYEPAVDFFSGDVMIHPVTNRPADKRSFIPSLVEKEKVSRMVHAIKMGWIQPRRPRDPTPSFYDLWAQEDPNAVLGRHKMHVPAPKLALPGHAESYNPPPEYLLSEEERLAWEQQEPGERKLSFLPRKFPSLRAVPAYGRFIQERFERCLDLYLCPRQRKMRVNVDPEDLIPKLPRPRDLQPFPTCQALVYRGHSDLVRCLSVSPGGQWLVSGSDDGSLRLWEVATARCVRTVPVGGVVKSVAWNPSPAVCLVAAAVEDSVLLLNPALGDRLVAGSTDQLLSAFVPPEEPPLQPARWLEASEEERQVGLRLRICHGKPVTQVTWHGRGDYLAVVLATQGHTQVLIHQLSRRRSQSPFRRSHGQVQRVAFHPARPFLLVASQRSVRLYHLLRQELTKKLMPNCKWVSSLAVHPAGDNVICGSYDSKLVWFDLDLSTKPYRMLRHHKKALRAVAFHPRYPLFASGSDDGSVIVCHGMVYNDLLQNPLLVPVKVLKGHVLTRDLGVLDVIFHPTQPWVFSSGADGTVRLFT
UniProt P62714: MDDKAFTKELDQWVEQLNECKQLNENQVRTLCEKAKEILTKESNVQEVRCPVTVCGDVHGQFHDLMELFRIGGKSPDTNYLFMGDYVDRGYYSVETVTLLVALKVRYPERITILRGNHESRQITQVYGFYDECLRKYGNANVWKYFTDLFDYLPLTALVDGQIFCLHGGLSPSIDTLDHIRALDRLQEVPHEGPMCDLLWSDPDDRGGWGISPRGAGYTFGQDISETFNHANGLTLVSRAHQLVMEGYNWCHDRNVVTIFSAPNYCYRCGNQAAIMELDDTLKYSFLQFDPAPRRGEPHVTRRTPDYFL
UniProt Q14258: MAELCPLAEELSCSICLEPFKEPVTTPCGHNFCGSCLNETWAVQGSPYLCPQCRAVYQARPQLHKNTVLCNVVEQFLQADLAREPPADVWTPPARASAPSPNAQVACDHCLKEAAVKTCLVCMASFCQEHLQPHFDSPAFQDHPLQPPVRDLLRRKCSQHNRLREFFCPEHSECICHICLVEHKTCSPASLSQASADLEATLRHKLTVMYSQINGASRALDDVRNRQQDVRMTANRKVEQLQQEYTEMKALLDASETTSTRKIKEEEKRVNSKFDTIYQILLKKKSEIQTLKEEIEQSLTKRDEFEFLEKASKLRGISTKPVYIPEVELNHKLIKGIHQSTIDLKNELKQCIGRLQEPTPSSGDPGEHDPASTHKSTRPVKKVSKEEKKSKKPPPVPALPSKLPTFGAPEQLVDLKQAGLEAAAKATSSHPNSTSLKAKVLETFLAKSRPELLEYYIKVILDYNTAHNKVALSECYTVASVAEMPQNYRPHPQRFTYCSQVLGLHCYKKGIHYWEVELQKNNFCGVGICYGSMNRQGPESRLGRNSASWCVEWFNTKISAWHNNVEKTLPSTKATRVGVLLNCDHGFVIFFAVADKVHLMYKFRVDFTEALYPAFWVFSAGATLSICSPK

B1: pRb (protein, UniProt P06400 1-928)
chain: MPPKTPRKTAATAAAAAAEPPAPPPPPPPEEDPEQDSGPEDLPLVRLEFEETEEPDFTALCQKLKIPDHVRERAWLTWEKVSSVDGVLGGYIQKKKELWGICIFIAAVDLDEMSFTFTELQKNIEISVHKFFNLLKEIDTSTKVDNAMSRLLKKYDVLFALFSKLERTCELIYLTQPSSSISTEINSALVLKVSWITFLLAKGEVLQMEDDLVISFQLMLCVLDYFIKLSPPMLLKEPYKTAVIPINGSPRTPRRGQNRSARIAKQLENDTRIIEVLCKEHECNIDEVKNVYFKNFIPFMNSLGLVTSNGLPEVENLSKRYEEIYLKNKDLDARLFLDHDKTLQTDSIDSFETQRTPRKSNLDEEVNVIPPHTPVRTVMNTIQQLMMILNSASDQPSENLISYFNNCTVNPKESILKRVKDIGYIFKEKFAKAVGQGCVEIGSQRYKLGVRLYYRVMESMLKSEEERLSIQNFSKLLNDNIFHMSLLACALEVVMATYSRSTSQNLDSGTDLSFPWILNVLNLKAFDFYKVIESFIKAEGNLTREMIKHLERCEHRIMESLAWLSDSPLFDLIKQSKDREGPTDHLESACPLNLPLQNNHTAADMYLSPVRSPKKKGSTTRVNSTANAETQATSAFQTQKPLKSTSLSLFYKKVYRLAYLRLNTLCERLLSEHPELEHIIWTLFQHTLQNEYELMRDRHLDQIMMCSMYGICKVKNIDLKFKIIVTAYKDLPHAVQETFKRVLIKEEEYDSIIVFYNSVFMQRLKTNILQYASTRPPTLSPIPHIPRSPYKFPSSPLRIPGGNIYISPLKSPYKISEGLPTPTKMTPRSRILVSIGESFGTSEKFQKINQMVCNSDRVLKRSAEGSNPPKPLKKLRFDIEGSDEADGSKHLPGESKFQQKLAEMTSTRTRMQKQKMNDSMDTSNKEEK
B2: Ataxin 2-like, isoform CRA_e (protein, UniProt Q8WWM7 1-1075)
chain: MLKPQPLQQPSQPQQPPPTQQAVARRPPGGTSPPNGGLPGPLATSAAPPGPPAAASPCLGPVAAAGSGLRRGAEGILAPQPPPPQQHQERPGAAAIGSARGQSTGKGPPQSPVFEGVYNNSRMLHFLTAVVGSTCDVKVKNGTTYEGIFKTLSSKFELAVDAVHRKASEPAGGPRREDIVDTMVFKPSDVMLVHFRNVDFNYATKDKFTDSAIAMNSKVNGEHKEKVLQRWEGGDSNSDDYDLESDMSNGWDPNEMFKFNEENYGVKTTYDSSLSSYTVPLEKDNSEEFRQRELRAAQLAREIESSPQYRLRIAMENDDGRTEEEKHSAVQRQGSGRESPSLASREGKYIPLPQRVREGPRGGVRCSSSRGGRPGLSSLPPRGPHHLDNSSPGPGSEARGINGGPSRMSPKAQRPLRGAKTLSSPSNRPSGETSVPPPPAVGRMYPPRSPKSAAPAPISASCPEPPIGSAVPTSSASIPVTSSVSDPGVGSISPASPKISLAPTDVKELSTKEPGRTLEPQELARIAGKVPGLQNEQKRFQLEELRKFGAQFKLQPSSSPENSLDPFPPRILKEEPKGKEKEVDGLLTSEPMGSPVSSKTESVSDKEDKPPLAPSGGTEGPEQPPPPCPSQTGSPPVGLIKGEDKDEGPVAEQVKKSTLNPNAKEFNPTKPLLSVNKSTSTPTSPGPRTHSTPSIPVLTAGQSGLYSPQYISYIPQIHMGPAVQAPQMYPYPVSNSVPGQQGKYRGAKGSLPPQRSDQHQPASAPPMMQAAAAAGPPLVAATPYSSYIPYNPQQFPGQPAMMQPMAHYPSQPVFAPMLQSNPRMLTSGSHPQAIVSSSTPQYPSAEQPTPQALYATVHQSYPHHATQLHAHQPQPATTPTGSQPQSQHAAPSPVQHQAGQAPHLGSGQPQQNLYHPGALTGTPPSLPPGPSAQSPQSSFPQPAAVYAIHHQQLPHGFTNMAHVTQAHVQTGITAAPPPHPGAPHPPQVMLLHPPQSHGGPPQGAVPQSGVPALSASTPSPYPYIGHPQGEQPGQAPGFPGGADDRIREFSLAGGIWHGRAEGLQVGQDARVLGGE
B3: Nucleolar protein 6 (protein, UniProt Q9H6R4 1-1146)
chain: MGPAPAGEQLRGATGEPEVMEPALEGTGKEGKKASSRKRTLAEPPAKGLLQPVKLSRAELYKEPTNEELNRLRETEILFHSSLLRLQVEELLKEVRLSEKKKDRIDAFLREVNQRVVRVPSVPETELTDQAWLPAGVRVPLHQVPYAVKGCFRFLPPAQVTVVGSYLLGTCIRPDINVDVALTMPREILQDKDGLNQRYFRKRALYLAHLAHHLAQDPLFGSVCFSYTNGCHLKPSLLLRPRGKDERLVTVRLHPCPPPDFFRPCRLLPTKNNVRSAWYRGQSPAGDGSPEPPTPRYNTWVLQDTVLESHLQLLSTILSSAQGLKDGVALLKVWLRQRELDKGQGGFTGFLVSMLVVFLVSTRKIHTTMSGYQVLRSVLQFLATTDLTVNGISLCLSSDPSLPALADFHQAFSVVFLDSSGHLNLCADVTASTYHQVQHEARLSMMLLDSRADDGFHLLLMTPKPMIRAFDHVLHLRPLSRLQAACHRLKLWPELQDNGGDYVSAALGPLTTLLEQGLGARLNLLAHSRPPVPEWDISQDPPKHKDSGTLTLGLLLRPEGLTSVLELGPEADQPEAAKFRQFWGSRSELRRFQDGAIREAVVWEAASMSQKRLIPHQVVTHLLALHADIPETCVHYVGGPLDALIQGLKETSSTGEEALVAAVRCYDDLSRLLWGLEGLPLTVSAVQGAHPVLRYTEVFPPTPVRPAFSFYETLRERSSLLPRLDKPCPAYVEPMTVVCHLEGSGQWPQDAEAVQRVRAAFQLRLAELLTQQHGLQCRATATHTDVLKDGFVFRIRVAYQREPQILKEVQSPEGMISLRDTAASLRLERDTRQLPLLTSALHGLQQQHPAFSGVARLAKRWVRAQLLGEGFADESLDLVAAALFLHPEPFTPPSSPQVGFLRFLFLVSTFDWKNNPLFVNLNNELTVEEQVEIRSGFLAARAQLPVMVIVTPQDRKNSVWTQDGPSAQILQQLVVLAAEALPMLEKQLMDPRGPGDIRTVFRPPLDIYDVLIRLSPRHIPRHRQAVDSPAASFCRGLLSQPGPSSLMPVLGYDPPQLYLTQLREAFGDLALFFYDQHGGEVIGVLWKPTSFQPQPFKASSTKGRMVMSRGGELVMVPNVEAILEDFAVLGEGLVQTVEARSERWTV
B4: U3 small nucleolar RNA-interacting protein (protein, UniProt O43818 1-475)
chain: MSATAAARKRGKPASGAGAGAGAGKRRRKADSAGDRGKSKGGGKMNEEISSDSESESLAPRKPEEEEEEELEETAQEKKLRLAKLYLEQLRQQEEEKAEARAFEEDQVAGRLKEDVLEQRGRLQKLVAKEIQAPASADIRVLRGHQLSITCLVVTPDDSAIFSAAKDCSIIKWSVESGRKLHVIPRAKKGAEGKPPGHSSHVLCMAISSDGKYLASGDRSKLILIWEAQSCQHLYTFTGHRDAVSGLAFRRGTHQLYSTSHDRSVKVWNVAENSYVETLFGHQDAVAALDALSRECCVTAGGRDGTVRVWKIPEESQLVFYGHQGSIDCIHLINEEHMVSGADDGSVALWGLSKKRPLALQREAHGLRGEPGLEQPFWISSVAALLNTDLVATGSHSSCVRLWQCGEGFRQLDLLCDIPLVGFINSLKFSSSGDFLVAGVGQEHRLGRWWRIKEARNSVCIIPLRRVPVPPAAGS

Assays:
[1] = target: T7-2xStrep-JCV Sm t-Ag (JC virus (JCV)) (UniProt P03083); experiment: affinity purification with mass spectrometry
[2] = target: T7-2xStrep-JCV LT-Ag (JC virus (JCV)) (UniProt P03072); experiment: affinity purification with mass spectrometry

Molecule	binding [1]	binding [2]
Apoptosis-inducing factor 1 (from UniProt O95831)	binds	
Aurora kinase B (from UniProt Q96GD4 1-344)	binds	
BAG family molecular chaperone regulator 2 (from UniProt O95816 1-211)	binds	
Chromobox protein homolog 1 (from UniProt P83916 1-185)	binds	
Clathrin interactor 1 isoform 1 (from UniProt Q14677 1-625)	binds	
FLJ79343, highly similar to SWI/SNF-related matrix-associated actin-dependent regulator of chromatin subfamily A member 5 (from UniProt O60264 1-1052)	binds	
Golgin subfamily A member 4 (from UniProt Q13439 1-2230)	binds	
Heat shock 70 kDa protein 4L (from UniProt O95757 1-839)	binds	
Interferon regulatory factor 2-binding protein-like (from UniProt Q9H1B7 1-796)	binds	
Protein phosphatase 2 (formerly 2A), regulatory subunit A (PR 65) (from UniProt P30153 1-589)	binds	
Ribosome biogenesis protein BOP1 (from UniProt Q14137 1-746)	binds	
Serine/threonine-protein phosphatase 2A catalytic subunit alpha isoform (from UniProt P67775 1-309)	binds	
Serine/threonine-protein phosphatase 2A catalytic subunit beta isoform (from UniProt P62714 1-309)	binds	
Smarca1 (SW1-SNF-related, matrix-associated, actin-dependent regulator of chromatin A 1) (from UniProt P28370 1-1042)	binds	
Succinate Dehydrogenase Complex Flavoprotein Subunit A (from UniProt P31040 43-664)	binds	
Tripartite motif-containing 25, isoform CRA_a (from UniProt Q14258 1-630)	binds	
Ubiquitin carboxyl-terminal hydrolase 11 (from UniProt P51784 1-963)	binds	
YTH domain family, member 3, isoform CRA_a (from UniProt Q7Z739 1-585)	binds	
cDNA FLJ57449, highly similar to Notchless homolog 1 (from UniProt Q9NVX2 1-485)	binds	
cDNA FLJ59521, moderately similar to Zinc finger and SCAN domain-containing protein 2 (from UniProt Q9H5H4 1-540)	binds	
cDNA FLJ60148, highly similar to Homo sapiens heterogeneous nuclear ribonucleoprotein D-like (HNRPDL), transcript variant 2 (from UniProt O14979 1-420)	binds	
B1		no binding
B2	binds	
B3	binds	
B4	binds	
